The supplement of paper PMC10849652
Some of the results follow. Residues, ends and D or L forms follow the SMILES beside them. *: point of attachment. Cbz = O=C(OCc1ccccc1)*

Sequences of proteins named here, by UniProt entry; tags and fusion partners are left off. A change or cut given only in a name is not applied to a line headed by its entry.
UniProt Q13616, whole entry, looked up: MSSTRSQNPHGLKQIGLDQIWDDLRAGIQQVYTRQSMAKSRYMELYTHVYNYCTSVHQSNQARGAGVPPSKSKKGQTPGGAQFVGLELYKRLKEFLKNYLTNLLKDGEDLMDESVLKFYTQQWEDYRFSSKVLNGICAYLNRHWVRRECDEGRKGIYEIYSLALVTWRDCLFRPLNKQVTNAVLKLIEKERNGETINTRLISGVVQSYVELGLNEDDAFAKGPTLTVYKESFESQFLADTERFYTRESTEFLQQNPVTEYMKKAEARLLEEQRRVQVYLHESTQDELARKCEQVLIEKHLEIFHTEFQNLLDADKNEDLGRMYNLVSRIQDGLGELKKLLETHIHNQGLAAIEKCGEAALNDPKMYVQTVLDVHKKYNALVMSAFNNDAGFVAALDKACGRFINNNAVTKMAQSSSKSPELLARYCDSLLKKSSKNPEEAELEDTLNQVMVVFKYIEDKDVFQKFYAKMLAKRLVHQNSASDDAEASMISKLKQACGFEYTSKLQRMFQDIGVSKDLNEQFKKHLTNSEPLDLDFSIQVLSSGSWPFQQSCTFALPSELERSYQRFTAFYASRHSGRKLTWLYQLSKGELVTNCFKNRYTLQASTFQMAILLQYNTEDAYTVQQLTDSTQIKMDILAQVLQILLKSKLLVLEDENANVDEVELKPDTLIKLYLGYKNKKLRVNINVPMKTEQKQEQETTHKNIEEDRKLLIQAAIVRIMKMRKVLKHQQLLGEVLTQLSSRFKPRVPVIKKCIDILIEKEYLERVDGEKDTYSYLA
UniProt Q69YN2: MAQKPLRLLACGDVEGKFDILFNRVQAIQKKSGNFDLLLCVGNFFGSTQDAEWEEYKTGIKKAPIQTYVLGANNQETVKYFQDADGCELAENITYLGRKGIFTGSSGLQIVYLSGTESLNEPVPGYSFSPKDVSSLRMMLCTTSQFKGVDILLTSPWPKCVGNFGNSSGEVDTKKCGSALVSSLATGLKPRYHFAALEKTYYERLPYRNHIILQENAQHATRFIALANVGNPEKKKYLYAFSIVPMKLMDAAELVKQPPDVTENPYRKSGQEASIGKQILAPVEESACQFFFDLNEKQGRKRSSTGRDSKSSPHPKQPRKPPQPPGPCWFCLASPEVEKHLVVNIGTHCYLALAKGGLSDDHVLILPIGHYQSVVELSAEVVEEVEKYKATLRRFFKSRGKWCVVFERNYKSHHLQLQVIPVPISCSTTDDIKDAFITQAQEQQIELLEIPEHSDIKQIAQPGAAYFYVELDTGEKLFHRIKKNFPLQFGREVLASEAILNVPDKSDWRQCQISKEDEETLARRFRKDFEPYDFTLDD
UniProt P08574: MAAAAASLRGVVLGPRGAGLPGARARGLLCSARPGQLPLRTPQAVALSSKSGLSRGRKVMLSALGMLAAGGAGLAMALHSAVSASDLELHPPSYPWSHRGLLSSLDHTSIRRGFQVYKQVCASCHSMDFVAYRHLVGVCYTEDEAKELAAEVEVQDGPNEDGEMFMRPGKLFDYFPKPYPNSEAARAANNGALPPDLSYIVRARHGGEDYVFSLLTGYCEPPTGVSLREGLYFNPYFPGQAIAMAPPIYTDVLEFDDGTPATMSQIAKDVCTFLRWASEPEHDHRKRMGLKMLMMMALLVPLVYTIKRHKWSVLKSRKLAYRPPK
UniProt Q5JQC4: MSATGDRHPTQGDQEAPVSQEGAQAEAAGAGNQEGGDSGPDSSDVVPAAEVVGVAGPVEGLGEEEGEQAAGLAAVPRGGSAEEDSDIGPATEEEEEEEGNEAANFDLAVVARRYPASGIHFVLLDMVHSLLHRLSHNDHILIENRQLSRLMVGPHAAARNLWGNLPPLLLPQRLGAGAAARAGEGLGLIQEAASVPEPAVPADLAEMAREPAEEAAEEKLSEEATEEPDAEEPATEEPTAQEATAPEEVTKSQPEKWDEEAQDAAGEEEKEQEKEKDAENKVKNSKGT
UniProt O75935, whole entry, looked up: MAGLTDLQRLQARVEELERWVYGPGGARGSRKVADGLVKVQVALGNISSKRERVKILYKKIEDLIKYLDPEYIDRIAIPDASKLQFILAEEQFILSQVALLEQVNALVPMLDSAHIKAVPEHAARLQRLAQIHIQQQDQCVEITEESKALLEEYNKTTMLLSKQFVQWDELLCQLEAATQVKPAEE
UniProt P51397: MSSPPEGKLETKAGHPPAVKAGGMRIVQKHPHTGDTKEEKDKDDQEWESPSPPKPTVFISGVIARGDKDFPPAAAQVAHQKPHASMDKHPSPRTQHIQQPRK
UniProt Q9NPI6: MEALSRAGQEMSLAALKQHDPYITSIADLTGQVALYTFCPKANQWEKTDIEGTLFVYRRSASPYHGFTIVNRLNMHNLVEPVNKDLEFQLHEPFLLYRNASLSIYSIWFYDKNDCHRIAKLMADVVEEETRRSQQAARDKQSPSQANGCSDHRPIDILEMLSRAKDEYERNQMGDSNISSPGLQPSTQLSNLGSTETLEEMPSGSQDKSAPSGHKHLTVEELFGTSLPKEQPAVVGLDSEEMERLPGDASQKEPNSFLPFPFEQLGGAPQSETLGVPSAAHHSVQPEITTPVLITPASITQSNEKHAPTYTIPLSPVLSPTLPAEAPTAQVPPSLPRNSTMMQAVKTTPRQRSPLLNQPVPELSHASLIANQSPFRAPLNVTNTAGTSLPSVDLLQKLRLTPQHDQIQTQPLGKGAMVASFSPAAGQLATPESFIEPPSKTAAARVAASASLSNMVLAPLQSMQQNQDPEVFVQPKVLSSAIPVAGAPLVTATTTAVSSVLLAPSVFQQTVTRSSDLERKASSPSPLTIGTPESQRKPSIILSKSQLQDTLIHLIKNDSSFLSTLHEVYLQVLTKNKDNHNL
UniProt Q13618, whole entry, looked up: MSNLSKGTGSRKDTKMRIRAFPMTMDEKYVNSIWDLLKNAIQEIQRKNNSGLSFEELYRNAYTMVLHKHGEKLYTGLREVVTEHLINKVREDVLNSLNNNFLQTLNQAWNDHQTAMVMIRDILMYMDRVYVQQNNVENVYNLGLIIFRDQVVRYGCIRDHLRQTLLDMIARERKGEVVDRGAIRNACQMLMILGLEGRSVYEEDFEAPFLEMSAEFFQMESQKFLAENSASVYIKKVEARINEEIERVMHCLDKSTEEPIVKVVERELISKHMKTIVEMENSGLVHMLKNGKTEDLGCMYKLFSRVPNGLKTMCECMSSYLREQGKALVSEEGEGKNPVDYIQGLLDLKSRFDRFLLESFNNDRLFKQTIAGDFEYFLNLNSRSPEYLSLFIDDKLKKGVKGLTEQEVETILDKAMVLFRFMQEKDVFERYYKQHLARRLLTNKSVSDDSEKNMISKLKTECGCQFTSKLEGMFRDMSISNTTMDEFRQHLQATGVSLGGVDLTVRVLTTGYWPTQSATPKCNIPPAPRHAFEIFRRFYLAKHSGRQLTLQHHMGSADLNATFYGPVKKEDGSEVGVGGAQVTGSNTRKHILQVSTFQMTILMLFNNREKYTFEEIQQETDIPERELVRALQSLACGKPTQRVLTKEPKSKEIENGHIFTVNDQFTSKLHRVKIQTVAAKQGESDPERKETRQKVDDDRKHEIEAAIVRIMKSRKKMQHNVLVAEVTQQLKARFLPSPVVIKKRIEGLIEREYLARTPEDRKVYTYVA
UniProt O43310: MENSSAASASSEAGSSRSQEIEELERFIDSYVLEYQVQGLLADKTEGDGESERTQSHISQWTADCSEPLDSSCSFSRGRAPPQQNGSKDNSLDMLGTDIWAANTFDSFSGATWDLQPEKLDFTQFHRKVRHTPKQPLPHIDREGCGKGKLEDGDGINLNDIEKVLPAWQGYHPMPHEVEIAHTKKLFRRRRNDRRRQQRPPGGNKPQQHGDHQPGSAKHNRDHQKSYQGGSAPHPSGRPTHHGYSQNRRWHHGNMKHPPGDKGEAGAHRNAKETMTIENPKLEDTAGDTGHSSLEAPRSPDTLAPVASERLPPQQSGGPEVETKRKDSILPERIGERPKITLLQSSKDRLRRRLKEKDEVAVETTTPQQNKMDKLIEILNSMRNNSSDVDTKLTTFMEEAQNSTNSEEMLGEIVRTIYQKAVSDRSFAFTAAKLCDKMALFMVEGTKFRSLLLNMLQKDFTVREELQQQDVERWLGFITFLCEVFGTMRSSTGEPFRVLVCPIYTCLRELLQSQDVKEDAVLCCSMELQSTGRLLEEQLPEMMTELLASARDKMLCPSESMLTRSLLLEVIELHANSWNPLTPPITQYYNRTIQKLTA
UniProt Q8NCG7: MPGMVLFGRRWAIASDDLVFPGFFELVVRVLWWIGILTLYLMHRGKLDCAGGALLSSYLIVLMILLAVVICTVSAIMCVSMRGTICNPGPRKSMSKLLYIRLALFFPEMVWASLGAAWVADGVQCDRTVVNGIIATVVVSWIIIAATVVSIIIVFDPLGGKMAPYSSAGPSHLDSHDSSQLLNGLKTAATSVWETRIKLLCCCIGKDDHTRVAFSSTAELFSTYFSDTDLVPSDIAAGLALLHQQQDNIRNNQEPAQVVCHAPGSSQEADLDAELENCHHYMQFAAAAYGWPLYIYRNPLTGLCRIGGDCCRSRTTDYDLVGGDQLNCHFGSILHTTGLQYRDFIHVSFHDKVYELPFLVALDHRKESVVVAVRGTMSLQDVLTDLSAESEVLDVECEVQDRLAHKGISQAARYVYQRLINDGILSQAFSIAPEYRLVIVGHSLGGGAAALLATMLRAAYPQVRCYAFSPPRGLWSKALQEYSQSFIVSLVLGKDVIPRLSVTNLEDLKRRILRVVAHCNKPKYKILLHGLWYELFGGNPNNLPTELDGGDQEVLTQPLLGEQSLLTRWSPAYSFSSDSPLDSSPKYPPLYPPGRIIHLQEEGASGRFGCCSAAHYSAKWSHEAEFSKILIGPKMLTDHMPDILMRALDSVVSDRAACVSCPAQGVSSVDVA
UniProt Q13561, whole entry, looked up: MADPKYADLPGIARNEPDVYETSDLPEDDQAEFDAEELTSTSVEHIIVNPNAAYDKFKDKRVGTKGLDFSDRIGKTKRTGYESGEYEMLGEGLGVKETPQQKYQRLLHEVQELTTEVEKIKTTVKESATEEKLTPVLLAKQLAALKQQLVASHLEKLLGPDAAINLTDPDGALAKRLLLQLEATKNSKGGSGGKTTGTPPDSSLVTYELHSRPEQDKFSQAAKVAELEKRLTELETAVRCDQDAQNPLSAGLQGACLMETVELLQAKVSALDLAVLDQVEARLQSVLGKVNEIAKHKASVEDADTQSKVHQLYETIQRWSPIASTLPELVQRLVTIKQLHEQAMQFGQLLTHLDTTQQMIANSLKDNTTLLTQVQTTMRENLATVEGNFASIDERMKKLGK
UniProt Q9UJW0, whole entry, looked up: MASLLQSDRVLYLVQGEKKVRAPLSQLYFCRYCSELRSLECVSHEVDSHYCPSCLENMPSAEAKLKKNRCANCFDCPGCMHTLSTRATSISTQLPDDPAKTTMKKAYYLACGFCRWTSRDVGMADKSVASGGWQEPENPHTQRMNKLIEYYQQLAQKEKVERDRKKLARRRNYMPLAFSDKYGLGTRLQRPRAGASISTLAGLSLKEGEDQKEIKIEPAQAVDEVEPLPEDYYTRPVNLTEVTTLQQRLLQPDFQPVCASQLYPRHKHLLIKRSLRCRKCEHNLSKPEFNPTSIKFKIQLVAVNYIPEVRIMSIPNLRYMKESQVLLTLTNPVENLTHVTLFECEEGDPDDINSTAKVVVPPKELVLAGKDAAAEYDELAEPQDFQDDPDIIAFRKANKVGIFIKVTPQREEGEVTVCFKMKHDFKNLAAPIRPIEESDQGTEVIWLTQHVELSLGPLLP
UniProt P01034: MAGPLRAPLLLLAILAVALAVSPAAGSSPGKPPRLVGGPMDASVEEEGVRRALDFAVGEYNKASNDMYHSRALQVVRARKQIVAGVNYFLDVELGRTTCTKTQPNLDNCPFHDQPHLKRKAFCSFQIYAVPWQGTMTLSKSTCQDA
UniProt Q9NTM9: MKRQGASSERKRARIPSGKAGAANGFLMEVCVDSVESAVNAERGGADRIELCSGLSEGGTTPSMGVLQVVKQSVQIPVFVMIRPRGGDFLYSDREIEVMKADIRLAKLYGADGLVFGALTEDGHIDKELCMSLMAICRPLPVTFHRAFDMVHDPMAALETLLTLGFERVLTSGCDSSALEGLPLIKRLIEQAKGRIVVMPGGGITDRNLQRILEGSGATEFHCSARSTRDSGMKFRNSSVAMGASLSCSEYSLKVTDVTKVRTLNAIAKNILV

Experiments:
Test in all cases: log2 fold change, soluble protein after heating vs DMSO (PISA); higher = thermal stabilisation; K562 cells, 10 uM, 30 min; active = over 0.2 and 3.5 SD of the protein, either way, in both replicates (recomputed)
[1] = compound: C1COCCN1CCN2C3=CC=CC=C3N=C2NC(=O)C4=CC(=CC=C4)[N+](=O)[O-] [IRAK-1-4 Inhibitor I]
Procedure, shortened: (§1)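 Aliquots of K562 cells (2×10^6 cells/mL) treated with 10 μM compound for 30 min were heated for 3 min over 48°C-58°C. After pooling and extraction in PBS with 0.5% NP-40 at 4°C, soluble protein from a 21,000xg, 90 min spin was quantified by TMTpro 16plex LC-MS/MS with channel sums equalised. Thermal stability is expressed against control samples, from duplicates, as a log2 fold change.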

[2] = compound: C=CC(=O)N1CCC[C@@H](n2nc(-c3ccc(Oc4ccccc4)cc3)c3c(N)ncnc32)C1 [ibrutinib]
Procedure, shortened: as §1

[3] = compound: CC(=O)c1cnc2ccc(-c3cc(Cl)c(O)c(Cl)c3)nc2c1N[C@H]1CC[C@H](CN(C)C)CC1
Procedure, shortened: as §1

[4] = compound: CC(C)(C)Cn1c(N)nc2ccc(-c3[nH]c(C(C)(C)C)nc3-c3ccc(F)cc3)nc21 [ralimetinib]
Procedure, shortened: as §1

[5] = compound: CC(C)(O)CC(=O)NCCn1ccc2ncnc(Nc3ccc(Oc4cccc(C(F)(F)F)c4)c(Cl)c3)c21
Procedure, shortened: as §1

[6] = compound: CC(C)C1=C2N=C(C=C(N2N=C1)NCC3=CC=CC=C3)NCCCCCCN
Procedure, shortened: as §1

[7] = compound: CC(C)C[C@@H](C=O)NC(=O)[C@H](CC(C)C)NC(=O)[C@H](CC(C)C)NC(=O)OCc1ccccc1
Procedure, shortened: as §1

[8] = compound: CC(C)N(C[C@H]1O[C@@H](n2cnc3c(N)ncnc32)[C@H](O)[C@@H]1O)[C@H]1C[C@@H](CCc2nc3cc(C(C)(C)C)ccc3[nH]2)C1 [pinometostat]
Procedure, shortened: as §1

[9] = compound: CC1=C(C(CC(=O)N1)C2=CC=C(C=C2)C(F)(F)F)C(=O)NC3=C(C=C4C(=C3)C=NN4)F
Procedure, shortened: as §1

[10] = compound: CC1=C(C2=C(C=C1)C(=O)C3=CC=CC=C3N2CCCN)C
Procedure, shortened: as §1

[11] = compound: CC1=C(C=C(C=C1)NC(=O)C2=CC(=CC=C2)C(C)(C)C#N)NC3=CC4=C(C=C3)N=CN(C4=O)C
Procedure, shortened: as §1

[12] = compound: CC1=C(C=C(C=C1)NC(=O)C2=CC(=CC=C2)N(C)C)NC(=O)C3=CC=C(C=C3)O
Procedure, shortened: as §1

[13] = compound: CC1=CC=C(C=C1)SC2=C3C=C(SC3=CN=C2)C(=O)N
Procedure, shortened: as §1

[14] = compound: CC1=NC(=CC=C1)C2=C(N=C(N2)C(C)(C)C)C3=CC4=NC=CN=C4C=C3
Procedure, shortened: as §1

[15] = compound: CCCCN(Cc1ccc(C(=O)NO)cc1)C(=O)Nc1ccccc1 [Nexturastat A]
Procedure, shortened: as §1

[16] = compound: CCCS(=O)(=O)Nc1ccc(F)c(C(=O)c2c[nH]c3ncc(-c4ccc(Cl)cc4)cc23)c1F [vemurafenib]
Procedure, shortened: as §1

[17] = compound: CCCS(=O)(=O)Nc1ccc(F)c(C(=O)c2c[nH]c3ncc(Cl)cc23)c1F
Procedure, shortened: as §1

[18] = compound: CCCc1cc(C)[nH]c(=O)c1CNC(=O)c1cc(-c2ccnc(N3CCN(C)CC3)c2)cc2c1cnn2C(C)C
Procedure, shortened: as §1

[19] = compound: CCN(CC)Cc1ccc2cc(COC(=O)Nc3ccc(C(=O)NO)cc3)ccc2c1 [givinostat]
Procedure, shortened: as §1

[20] = compound: CCN(CCCOc1ccc2c(Nc3cc(CC(=O)Nc4cccc(F)c4)[nH]n3)ncnc2c1)CCOP(=O)(O)O [barasertib]
Procedure, shortened: as §1

Measured: log2 fold change

DCAF1 (UniProt Q9Y4B6)
inactive: [1] 0.001 | [2] 0.002 | [3] -0.017 | [4] -0.063 | [5] -0.059 | [6] -0.089 | [7] 0.01 | [8] 0.003 | [9] -0.023 | [10] -0.19 | [11] 0.012 | [12] 0 | [13] -0.003 | [14] 0.057 | [15] -0.007 | [16] -0.001 | [17] 0.025 | [18] -0.023 | [19] 0.012 | [20] 0.003

CUL1 (UniProt Q13616)
inactive: [1] 0.014 | [2] 0.017 | [3] 0.031 | [4] -0.026 | [5] -0.009 | [6] 0.079 | [7] -0.051 | [8] -0.057 | [9] 0.033 | [10] 0.011 | [11] -0.011 | [12] -0.005 | [13] 0.04 | [14] 0.031 | [15] -0.059 | [16] 0.004 | [17] 0.011 | [18] -0.045 | [19] -0.014 | [20] -0.004

CTBP1 (UniProt Q13363)
inactive: [1] 0.047 | [2] 0.039 | [3] -0.009 | [4] -0.046 | [5] 0.009 | [6] 0.054 | [7] 0.141 | [8] -0.048 | [9] 0.038 | [10] 0.025 | [11] 0.003 | [12] -0.028 | [13] 0.026 | [14] 0.008 | [15] -0.046 | [16] 0.005 | [17] -0.056 | [18] -0.069 | [19] -0.002 | [20] -0.004

CWF19L1 (UniProt Q69YN2)
inactive: [1] 0.027 | [2] 0.01 | [3] 0.031 | [4] 0.016 | [5] 0.014 | [6] 0.206 | [7] -0.025 | [8] 0.031 | [9] -0.06 | [10] 0.138 | [11] 0.049 | [12] -0.03 | [13] -0.016 | [14] 0.004 | [15] -0.039 | [16] 0 | [17] 0.034 | [18] 0.012 | [19] 0.009 | [20] 0.016

CYC1 (UniProt P08574)
inactive: [1] 0.015 | [2] 0.041 | [3] -0.029 | [4] -0.038 | [5] 0.009 | [6] 0.008 | [7] -0.01 | [8] -0.057 | [9] 0.003 | [10] 0.043 | [11] 0 | [12] -0.021 | [13] 0.049 | [14] 0.013 | [15] -0.087 | [16] -0.009 | [17] 0.03 | [18] 0.058 | [19] -0.004 | [20] -0.033

CT47A1 (UniProt Q5JQC4)
inactive: [1] -0.051 | [2] 0.006 | [3] -0.015 | [4] 0.145 | [5] 0.004 | [6] -0.065 | [7] 0.013 | [8] 0.088 | [9] 0.028 | [10] -0.016 | [11] 0.034 | [12] -0.003 | [13] -0.004 | [14] 0.021 | [15] 0.012 | [16] 0.025 | [17] 0.023 | [18] 0.06 | [19] 0.028 | [20] 0.067

DCTN3 (UniProt O75935)
inactive: [1] -0.082 | [2] -0.042 | [3] 0.002 | [4] 0.018 | [5] -0.049 | [6] -0.035 | [7] 0.027 | [8] -0.114 | [9] -0.024 | [10] 0.056 | [11] 0.073 | [12] -0.04 | [13] 0 | [14] 0.056 | [15] -0.029 | [16] 0.061 | [17] 0.025 | [18] 0.012 | [19] 0.027 | [20] 0.066

DAP (UniProt P51397)
inactive: [1] -0.012 | [2] -0.031 | [3] 0.04 | [4] -0.101 | [5] -0.024 | [6] 0.134 | [7] 0.011 | [8] -0.094 | [9] 0.023 | [10] -0.006 | [11] 0.016 | [12] -0.038 | [13] 0.043 | [14] 0.141 | [15] -0.089 | [16] 0.019 | [17] -0.015 | [18] -0.05 | [19] 0.023 | [20] -0.022

DCP1A (UniProt Q9NPI6)
inactive: [1] -0.113 | [2] -0.009 | [3] -0.157 | [4] 0.145 | [5] 0.01 | [6] -0.103 | [7] 0.044 | [8] 0.082 | [9] 0.027 | [10] -0.004 | [11] 0.083 | [12] -0.001 | [13] -0.06 | [14] -0.004 | [15] -0.031 | [16] 0.132 | [17] -0.005 | [18] 0.04 | [19] 0.095 | [20] 0.106

CUL3 (UniProt Q13618)
inactive: [1] 0.051 | [2] -0.006 | [3] -0.022 | [4] -0.035 | [5] -0.018 | [6] 0.025 | [7] -0.054 | [8] -0.026 | [9] 0.016 | [10] 0.011 | [11] 0.007 | [12] 0 | [13] -0.001 | [14] 0.027 | [15] -0.062 | [16] 0.01 | [17] 0.036 | [18] -0.019 | [19] -0.01 | [20] 0.012

Quoted from the listing (4 entries):
CT47A1 (UniProt Q5JQC4)
inactive: [1] -0.051 | [2] 0.006 | [3] -0.015 | [4] 0.145 | [5] 0.004 | [6] -0.065 | [7] 0.013 | [8] 0.088 | [9] 0.028 | [10] -0.016 | [11] 0.034 | [12] -0.003 | [13] -0.004 | [14] 0.021 | [15] 0.012 | [16] 0.025 | [17] 0.023 | [18] 0.06 | [19] 0.028 | [20] 0.067

DCTN3 (UniProt O75935)
inactive: [1] -0.082 | [2] -0.042 | [3] 0.002 | [4] 0.018 | [5] -0.049 | [6] -0.035 | [7] 0.027 | [8] -0.114 | [9] -0.024 | [10] 0.056 | [11] 0.073 | [12] -0.04 | [13] 0 | [14] 0.056 | [15] -0.029 | [16] 0.061 | [17] 0.025 | [18] 0.012 | [19] 0.027 | [20] 0.066

DAP (UniProt P51397)
inactive: [1] -0.012 | [2] -0.031 | [3] 0.04 | [4] -0.101 | [5] -0.024 | [6] 0.134 | [7] 0.011 | [8] -0.094 | [9] 0.023 | [10] -0.006 | [11] 0.016 | [12] -0.038 | [13] 0.043 | [14] 0.141 | [15] -0.089 | [16] 0.019 | [17] -0.015 | [18] -0.05 | [19] 0.023 | [20] -0.022

DCP1A (UniProt Q9NPI6)
inactive: [1] -0.113 | [2] -0.009 | [3] -0.157 | [4] 0.145 | [5] 0.01 | [6] -0.103 | [7] 0.044 | [8] 0.082 | [9] 0.027 | [10] -0.004 | [11] 0.083 | [12] -0.001 | [13] -0.06 | [14] -0.004 | [15] -0.031 | [16] 0.132 | [17] -0.005 | [18] 0.04 | [19] 0.095 | [20] 0.106

(cont.)

CTIF isoform 2 (UniProt O43310)
inactive: [1] 0.106 | [2] -0.134 | [3] 0.001 | [4] 0.058 | [5] -0.142 | [6] 0.085 | [7] -0.136 | [8] 0.05 | [9] -0.214 | [10] 0.04 | [11] -0.092 | [12] -0.024 | [13] 0.009 | [14] -0.173 | [15] -0.038 | [16] 0.063 | [17] 0.038 | [18] -0.024 | [19] -0.029 | [20] 0.017

DAGLB (UniProt Q8NCG7)
inactive: [1] 0.029 | [2] 0.051 | [3] 0.005 | [4] 0.032 | [5] -0.006 | [6] 0.089 | [7] 0.017 | [8] 0.007 | [9] -0.007 | [10] -0.037 | [11] -0.012 | [12] -0.025 | [13] 0.166 | [14] -0.037 | [15] 0.041 | [16] -0.011 | [17] -0.044 | [18] 0.011 | [19] -0.022 | [20] 0.013

DCTN2 isoform 2 (UniProt Q13561)
inactive: [1] -0.01 | [2] -0.041 | [3] 0.019 | [4] 0.044 | [5] -0.019 | [6] -0.024 | [7] -0.017 | [8] -0.024 | [9] -0.021 | [10] -0.007 | [11] 0.036 | [12] -0.055 | [13] 0.029 | [14] 0.012 | [15] -0.029 | [16] 0.053 | [17] 0.043 | [18] 0.015 | [19] 0.054 | [20] 0.023

DCTN4 (UniProt Q9UJW0)
inactive: [1] 0.015 | [2] -0.006 | [3] 0.03 | [4] 0.004 | [5] 0.032 | [6] 0.08 | [7] 0.049 | [8] -0.002 | [9] 0.019 | [10] 0.007 | [11] -0.057 | [12] -0.033 | [13] -0.033 | [14] -0.004 | [15] 0.028 | [16] -0.016 | [17] -0.012 | [18] -0.024 | [19] 0.003 | [20] 0.016

CST3 (UniProt P01034)
inactive: [1] -0.041 | [2] 0.026 | [3] 0.049 | [4] 0.039 | [5] 0.261 | [6] 0.14 | [7] -0.016 | [8] -0.011 | [9] 0.002 | [10] -0.135 | [11] 0.164 | [12] 0 | [13] -0.094 | [14] 0.018 | [15] -0.134 | [16] -0.057 | [17] -0.135 | [18] 0 | [19] 0 | [20] -0.046

CUTC (UniProt Q9NTM9)
inactive: [1] 0.014 | [2] 0.013 | [3] -0.08 | [4] -0.038 | [5] 0.036 | [6] 0.038 | [7] -0.042 | [8] -0.008 | [9] 0.047 | [10] 0.051 | [11] -0.024 | [12] 0.012 | [13] 0.045 | [14] 0.029 | [15] -0.035 | [16] -0.017 | [17] -0.035 | [18] -0.059 | [19] 0.02 | [20] 0.021
